The values that follow come from article PMC4967961.

By UniProt entry, the sequences of proteins in these tests, tags left out.
UniProt Q15717, whole entry: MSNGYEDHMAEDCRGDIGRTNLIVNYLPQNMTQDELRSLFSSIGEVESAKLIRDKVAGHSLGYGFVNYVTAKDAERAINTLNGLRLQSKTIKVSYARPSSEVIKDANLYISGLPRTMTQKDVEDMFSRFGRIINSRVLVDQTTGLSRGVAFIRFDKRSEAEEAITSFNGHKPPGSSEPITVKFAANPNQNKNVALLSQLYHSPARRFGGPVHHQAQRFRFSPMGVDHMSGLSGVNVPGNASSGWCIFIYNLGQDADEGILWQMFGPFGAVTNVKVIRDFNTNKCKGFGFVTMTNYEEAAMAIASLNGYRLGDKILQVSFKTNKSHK

For at least one entry, the source does not settle the construct or the ends of the probe. Negatives hold for the conditions tested.

The data set deals with HuR full-length (FL-HuR, rHuR) (UniProt Q15717). The data set can be described thus: EMSA. The conditions noted are these: EMSA: 20 mM Tris-HCl pH 7.8, 150 mM KCl, 2 mM MgCl2, 0.1% Triton X-100, 0.5 mM DTT, heparin 5 mg/ml, BSA 1 mg/ml, 10% glycerol, on ice 15 min, 6% native PAGE, 0.5x TBE, recombinant protein, protein details: His, label: 32P end label. For orientation: A gel shift assay detects complexes by their altered migration in electrophoresis.

In the case of “UGGAGUGUGACAAUGGUGUUUG / AAAUUCAAACACCAUUGUCACACUCCACCAGAUUAA [miR-122/miR-122* hybrid]”, the binding result (excess miR-122* abolishes miR-122 binding) was “no binding”.

For orientation: Kd means a measure of binding affinity in units of concentration. Consider “AAAUUCAAACACCAUUGUCACACUCCACCAGAUUAA [miR-122* (miR-122 antisense RNA)]”, for which the dissociation constant (Kd) was determined as 200 nM.
